Results on 62 compounds are retold here after PubChem BioAssay AID493014 (National Center for Advancing Translational Sciences (NCATS), 2011).

One may read the AC50 as the concentration giving half of the maximal activity seen.

The list shows a part of the results. These are further read-outs of the screen, such as a control signal, another cell line or another target. No call is given for them. Most of these compounds were active or inconclusive in the main read-out, so they are no random draw. Words in brackets tell the shape of the fitted curve; partial curves, single points and poor fits give uncertain potencies.

The assay can be described thus: qHTS Assay to Find Inhibitors of Chronic Active B-Cell Receptor Signaling. The conditions noted are these: ABC-DLBCL IkBa-CBG/CBR reporter, luminescence ratio (green luciferase fused to IkBa over red control in TMD8 lymphoma cells), 4 h. The method, boiled down:
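Cell line TMD8 (human ABC DLBCL), stably expressing tet-inducible CBG68-IkBa fusion and CBR; IMDM/0.5% FBS; cpd up to 46 uM; dox induction, 4 h, 37C/5% CO2; dual luminescence; green/red ratio; MG132 control.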
(In general: In qHTS, concentration-response curves come from the screen itself.)

The mark [1] stands for this setting: measured here: CBR red luminescence, cell number.
The mark [2] stands for this setting: measured here: IkBa-CBG green luminescence.

In the case of `CCOC(=O)c1sc(S(C)(=O)=O)c2c1CC(C)(C)C/C2=N/O`, under setting [1], the half-maximal activity concentration (AC50) was 35.5 µM [rising, partial curve, poor fit]. The same measure, in the same setting: the value for `O=C(CN1CCN(Cc2ccc(Cl)cc2)CC1)N/N=C/c1c[nH]c2ccccc12` was 29.1 µM [falling, single point]; that for `CSCCC(NC(N)=O)C(=O)NCC1CCCCC1` (stereo unspecified) was 29.1 µM [rising, single point]. Still for that read-out and setting: with `CC1(CC(=O)Nc2ccccc2)NC(=S)N(c2ccccc2)N1` (stereo unspecified) the figure was 20 µM [falling, single point]. On the same count and under the same terms, with `O=C(CSc1nnnn1C1CCCC1)Nc1ccccc1F` the figure was 15.8 µM [falling, partial curve, poor fit]. Take `Cc1cc(C(=O)OCC(=O)Nc2nc(-c3ccccc3)cs2)c(C)o1`: the AC50 under setting [1] is 5.62 µM [rising, single point]. Still for that read-out and setting: the value for `CCCc1cc(NCCCO)n2c(nc3ccccc32)c1C#N` was 35.5 µM [falling, single point]. Still for that read-out and setting: with `O=C(Nc1cc2c3c(c1)CC(=O)N3CCC2)c1ccco1` the figure was 6.51 µM [rising, full curve, poor fit]; with `Cc1ccc(C)c(OCCC(=O)NNC(=O)c2cc(C)oc2C)c1`, 29.1 µM [falling, partial curve, poor fit].

As for `CCSc1nc2sc3c(c2c(=O)n1-c1ccccc1)CCN(C(C)C)C3`, the concentration at half-maximal activity (AC50) was 31.6 µM [falling, single point] under setting [1] and 15.8 µM [rising, partial curve, poor fit] under setting [2].

`Fc1cccc2ncnc(OCc3ccccc3)c12`: the half-maximal activity concentration (AC50) under setting [1] is 6.31 µM [falling, single point]. Regarding `Cc1ccc(S(=O)(=O)N/N=C2/CC(=O)CC(C)(C)C2)cc1[N+](=O)[O-]`, the AC50 is 17.8 µM [falling, single point] under setting [1] and 35.5 µM [rising, partial curve, poor fit] under setting [2].

Turning to `CCOC(=O)Cc1csc(CC(N)=O)n1`, the AC50 under setting [1] was 0.178 µM [falling, full curve, poor fit]. The same measure, in the same setting: with `Cc1ccc(NS(=O)(=O)c2ccc(C(=O)N3CCCC(C(F)(F)F)C3)cc2)cc1` (stereo unspecified) the figure was 0.13 µM [rising, full curve, poor fit]; with `CC1(C)C(=O)Nc2ccccc2N1C(=O)COC(=O)c1ccc(Cl)c(S(=O)(=O)NCc2ccccc2)c1`, 0.0259 µM [falling, single point]; with `C=CCNc1ncnc2c1cnn2-c1ccc(OC)cc1`, 11.2 µM [falling, single point]. On the same count and under the same terms, with `Cn1c(SCC(=O)c2ccccc2)nnc1-c1cccc(N)c1` the figure was 18.4 µM [falling, partial curve]; with `Cc1ccccc1C(=O)N1CCN(c2ccc(NC(=O)c3cccnc3)cc2)CC1`, 0.316 µM [falling, full curve, poor fit]; with `Cc1ccccc1C(=O)NNC(=S)NC(=O)c1ccccc1`, 18.4 µM [falling, partial curve]. Same read-out and setting: the value for `COc1ccc(NC(=O)C/C(C)=N/NC(=O)C(=O)Nc2cccc(Cl)c2C)c(OC)c1` was 4.47 µM [falling, full curve, poor fit].

`COc1ccc2nc(C)cc(SCC(=O)N/N=C/c3ccc(O)c(O)c3)c2c1`: under setting [1], the AC50 is 2.82 µM [falling, partial curve, poor fit]. Same read-out and setting: with `CCOC(=O)c1ccc(Nc2nc(=O)c3cccnc3s2)cc1` the figure was 2.82 µM [falling, full curve, poor fit]; with `CN(C(=O)c1ccccn1)c1nnc(-c2ccccn2)s1`, 11.2 µM [falling, single point]; with `CC(=O)Nc1ccc(C(=O)OCc2ccc(F)cc2)cc1`, 3.16 µM [rising, full curve, poor fit].

Turning to `O=S(=O)(O)c1nc2ccccc2n1Cc1ccccc1`, the AC50 under setting [1] was 5.01 µM [rising, single point].

Take `CCOC(=O)c1nnc(-c2cccs2)nc1Oc1ccccc1C(=O)OC`: the AC50 under setting [1] is 14.6 µM [falling, partial curve].

On to `COCCNC(=O)c1cc2c3ccccc3n(C)c2s1`, for which the AC50 under setting [1] is 6.31 µM [falling, single point]. Same read-out and setting: with `CCn1ncc(CN2CCCC(C(=O)Nc3cccc(-c4cc5ccccc5[nH]4)c3)C2)c1C` (stereo unspecified) the figure was 12.6 µM [falling, partial curve, poor fit]. Still for that read-out and setting: with `COc1ccc(NC(=O)/C=C/c2ccco2)cn1` the figure was 10 µM [falling, partial curve, poor fit]. For the compound `CC(C)c1ccc(O)c(N)c1`, the AC50 under setting [1] is 23.1 µM [falling, partial curve, poor fit]. The same measure, in the same setting: with `Cc1cc(-n2c(C)cc(C(=O)CSc3nncn3C)c2C)no1` the figure was 29.1 µM [rising, single point]; with `CC[C@H](C)[C@@H](NC(=O)O[C@@H]1C(=O)c2cc(Br)ccc2O[C@H]1c1ccc2c(c1)OCO2)C(=O)OC`, 23.1 µM [rising, partial curve, poor fit]. The same measure, in the same setting: with `COc1ccccc1/C=C/C=N/n1c(-c2ccc(F)cc2)n[nH]c1=S` the figure was 1.41 µM [falling, full curve]; with `Nc1ccc(-c2nnn(Cc3ccccc3F)n2)cc1`, 2.82 µM [rising, partial curve, poor fit]. Still for that read-out and setting: with `Cc1ccc(C(C)C)c(OCC(=O)Nc2ccc3c(c2)nc(CCN2CCCCC2)n3C)c1` the figure was 35.5 µM [falling, single point]. Regarding `CCOc1c(Br)cc(C2NS(=O)(=O)N=C3CCCCCN32)cc1OC` (stereo unspecified), the half-maximal activity concentration (AC50) is, setting by setting: under setting [1], 14.1 µM [rising, partial curve, poor fit]; under setting [2], 22.4 µM [falling, single point].

With `CCn1c(=O)n(CC)c2cc(N3CCCC3)c(NC(=O)c3ccccc3Br)cc21`, the half-maximal activity concentration (AC50) under setting [1] is 3.98 µM [rising, single point]. Take `Cn1c(CNc2ccc(Cl)cc2)nc2ccccc21`: the half-maximal activity concentration (AC50) under setting [1] is 2.06 µM [rising, partial curve, poor fit].

For the compound `Cc1ccc(C(=O)Nc2ncc(Cc3ccccc3)s2)o1`, under setting [1], the AC50 is 11.2 µM [falling, single point]. `Nc1c(O)ccc2c1C(=O)c1ccccc1C2=O`: under setting [2], the half-maximal activity concentration (AC50) is 14.6 µM [rising, partial curve, poor fit]. Regarding `COc1ccc(OC)c(-c2c(=O)n(OCc3ccccc3Br)c3ccccc3[n+]2[O-])c1`, the concentration at half-maximal activity (AC50) under setting [1] was 3.26 µM [rising, single point]. Same read-out and setting: the value for `CCN(CC)CCN(Cc1cc2ccc(C)c(C)c2[nH]c1=O)C(=S)NCc1ccco1` was 15.8 µM [falling, single point]; that for `CCCc1[nH]n(-c2nc3ccccc3s2)c(=O)c1C=NCC1CCCO1` (stereo unspecified) was 8.91 µM [falling, partial curve, poor fit]; that for `Cc1c(Cl)c(C(=O)NNC(=S)Nc2ccccc2)nn1C` was 1.64 µM [falling, full curve, poor fit]. On the same count and under the same terms, the value for `CCOc1ccc(N(CC(=O)Nc2cccc(OC)c2)S(=O)(=O)c2c(C)noc2C)cc1` was 10.3 µM [falling, partial curve, poor fit]; that for `O=C(CSc1nnc(C2CC2)n1Cc1ccccc1)c1ccc(S(=O)(=O)N2CCOCC2)cc1` was 23.1 µM [rising, single point]; that for `O=C(Nc1nc(N2C(=O)c3ccccc3C2=O)n(-c2ccccc2)n1)c1ccccc1` was 5.17 µM [falling, partial curve].

Turning to `Cc1ccc(C(=O)NCC(=O)OC(C)C(=O)Nc2ccc(N3CCOCC3)cc2)s1` (stereo unspecified), the AC50 under setting [1] was 15.8 µM [rising, single point]. On the same count and under the same terms, with `COc1ccccc1NC(=O)CNC(=O)c1ccc(F)cc1` the figure was 17.8 µM [falling, single point]; with `CC(C)C[C@@H](CO)N(Cc1ccccc1)S(=O)(=O)N(Cc1ccccc1)[C@@H](CO)CC(C)C`, 16.4 µM [falling, partial curve]; with `CC1=NN(C(=O)c2ccccc2)C(O)(c2ccc(Br)cc2)C1` (stereo unspecified), 12.6 µM [falling, partial curve]. On the same count and under the same terms, the value for `CCN1C(=O)N(CC)C2NC(=S)NC21` (stereo unspecified) was 6.51 µM [rising, partial curve, poor fit].

For `N/C(=N\OC(=O)c1ccc(Cl)cc1Cl)c1ccncc1`, under setting [1], the AC50 was 15.8 µM [rising, partial curve, poor fit]. Regarding `COc1ccc(/C=C2\SC(=S)N(CCC(=O)Nc3ccccn3)C2=O)cc1OC`, the AC50 under setting [1] is 11.2 µM [falling, partial curve, poor fit]. Same read-out and setting: the value for `O=C(C1=C[C@H](C2CCCCC2)C[C@H](OCCCCO)O1)N1CCN(Cc2ccc3c(c2)OCO3)CC1` was 6.31 µM [rising, single point]; that for `CC(=O)c1ccc(NC(=O)CN2C(=O)/C(=C/C=C/c3ccccc3)SC2=S)cc1` was 4.61 µM [falling, single point]; that for `CCOC(=O)c1c(CSc2ccc(C)cc2)n(C)c2cc(Br)c(O)c(CN(C)C)c12` was 35.5 µM [falling, single point]. On the same count and under the same terms, with `CN(C)/C=C/c1onc(-c2c(F)cccc2Cl)c1C#N` the figure was 10 µM [rising, partial curve, poor fit]. On the same count and under the same terms, the value for `CC1CN(C(=S)Nc2ccc(Br)cc2)CC(C)O1` (stereo unspecified) was 10 µM [rising, partial curve, poor fit]; that for `O=C(/C(C=Nc1cc2c(oc1=O)CCCC2=O)=C(\O)c1ccccc1)c1ccccc1` was 2.82 µM [rising, full curve]. On to `Cc1ccnc(NS(=O)(=O)c2ccc(NC(=O)c3oc4ccc(F)cc4c3C)cc2)n1`, for which the AC50 under setting [1] is 14.1 µM [falling, single point]. For the compound `CCCCC(=O)NC(c1ccc([N+](=O)[O-])cc1)c1c(O)ccc2ccccc12` (stereo unspecified), the half-maximal activity concentration (AC50) runs as follows: under setting [1], 25.9 µM [falling, single point]; under setting [2], 20.6 µM [rising, single point].
